{"source": "patent US7900639B2", "about": "“Reconstituted tobaccos containing additive materials” (R. J. Reynolds Tobacco Company, priority 2003, dated 2011)", "key": {"[1]": {"assay": "Transfer rate of tocopherol from tobacco into mainstream smoke"}, "[2]": {"settings": "Example 8; cased blend with about 2% tocopherol compound"}}}
{"smiles": "CC(=O)Oc1c(C)c(C)c2c(c1C)CCC(C)(CCCC(C)CCCC(C)CCCC(C)C)O2", "note": "(stereo not drawn) [d-, l-alpha tocopherol acetate]", "values": [{"measurement": "transfer of d-, l-alpha tocopherol into mainstream smoke", "setting": "[1]; Example 9, d-, l-alpha tocopherol acetate added about 0.5%", "value": "about 1.6%"}]}
{"smiles": "Cc1c(C)c2c(c(C)c1OC(=O)CCC(=O)O)CCC(C)(CCCC(C)CCCC(C)CCCC(C)C)O2", "note": "(stereo not drawn) [d-, l-alpha tocopherol succinate]", "values": [{"measurement": "transfer of d-, l-alpha tocopherol into mainstream smoke", "setting": "[1]; Example 9, d-, l-alpha tocopherol succinate added about 4%", "value": "about 11.6%"}]}
{"smiles": "Cc1c(C)c2c(c(C)c1O)CCC(C)(CCCC(C)CCCC(C)CCCC(C)C)O2", "note": "(stereo not drawn) [d-, l-alpha tocopherol]", "values": [{"measurement": "harshness, hot sensation, bitter aftertaste and overall aftertaste relative to cigarettes with lesser levels", "setting": "[2]", "value": "reduced"}, {"measurement": "transfer of d-, l-alpha tocopherol into mainstream smoke", "setting": "[1]; Example 9, d-, l-alpha tocopherol added about 1% to blend by injection", "value": "about 10.3%"}, {"measurement": "transfer of d-, l-alpha tocopherol into mainstream smoke", "setting": "[1]; Example 11, neat additive about 1% of blend, FTC smoking conditions", "value": "about 7%"}]}
{"smiles": "Cc1c(C)c2c(c(C)c1O)CC[C@@](C)(CCC[C@H](C)CCC[C@H](C)CCCC(C)C)O2", "note": "[d-alpha tocopherol]", "values": [{"measurement": "transfer of d-alpha tocopherol into mainstream smoke", "setting": "[1]; Example 9, no added tocopherol, only endogenous tocopherol compound", "value": "about 17.4%"}]}
